Test system: Spodoptera littoralis
Experiment: Insecticidal bioassay screening (castor leaf dip, larval mortality)
Assay type: in vivo
Settings: 72 h, slope of regression (LDP) line
Method: Five concentrations (200, 100, 50, 25, 12.5 ppm) were designed for this synthetic compound and the reference fenoxycarb compound as the dynamic ingredients based on ppm via diluting the commercial formulation.
In this experiment, castor leaves are immersed in each of the previously prepared concentrations of the components for 10 seconds and then left to dry for 60 minutes. Larvae of the second and fourth instars of each checked strain are prepared with treated leaves in gauze-covered glass containers for 72 hrs. An untreated control is made in which leaves are dipped in triton x-100 and distilled water only. Then the preserved leaves were removed & fresh, untreated leaves were provided for 72 hours. Three replicates (10 larvae each) were checked for each concentration. Daily inspection was carried out for all treatments and mortality percentages were recorded 3 days (72 hours) after treatment. The average mortality percentage was corrected employing Abbott's formula. The corrected mortality rate for each of the previously synthesized compounds is statistically calculated according to Finney (1970). Through this rate, the corresponding concentration test lines (LDP lines) are assessed. Fifty and ninety percent mortality are determined, and the regression values for the checked products were previously evaluated.

OC(COc1ccc2ccccc2c1)CN1CCOCC1 (centres unmarked) [Compound 2, 1-(morpholin-4-yl)-3-(naphthalen-2-yloxy)propan-2-ol] was tested, and the “slope ± SE” value (2nd instar larvae) was 0.238 ± 0.076 and the “slope ± SE” value (4th instar larvae) was 0.255 ± 0.0862.
